Reference: PubChem BioAssay AID2685 (National Center for Advancing Translational Sciences (NCATS), 2010)
The campaign covered roughly 320,000 compounds. About 2,100 (0.66%) were called active. This list was built around the results that the source calls inconclusive (neither active nor inactive); the mix of calls is not that of the screen. Calls follow the shape of the dose curve; as a rule, active = well fitted inhibition curve with a large enough effect in the signal ratio, with a control signal flat (not every such curve was filed as active); inconclusive = small, poorly fitted or top-dose-only effect, or effect the other way, or a change in a side signal; inactive = flat fitted curve, though single readings scatter; the % refers to the signal ratio. A potency beside an inconclusive call is a rough fit, not a confirmed value.

Assay: qHTS Assay for Lipid Storage Modulators in Drosophila S3 Cells
Details: BODIPY lipid droplet fluorescence, 18-24 h, cells fed with added oleic acid; lipid storage change, negative = inhibition: at 46.1 µM (top of the series) unless noted
How it was run: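 Drosophila S3 cells got compounds at several concentrations plus oleic acid (400 uM solution). Laser-scanning cytometry with 488 nm excitation read lipid droplets at 500-530 nm and cells at 575-640 nm. Percent activity was relative to 20 uM Triacsin C.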
% is scaled to controls: 0 for no effect and ±100 for the full control effect; potency is read from the fitted curve at half-maximal effect.

| Compound | Potency | lipid storage change, negative = inhibition |
| --- | --- | --- |
| N#C/C(=C\c1ccc(-c2ccc(C(=O)O)cc2)o1)C(=O)Nc1ccc(F)cc1 | inconclusive: 29.1 µM [falling, single point] | – |
| CCn1cnc2sc(C(=O)N3CCN(Cc4ccc5c(c4)OCO5)CC3)c(C)c2c1=O | inconclusive: 3.26 µM [activator, single point] | – |
| COc1ccc(C(=O)OCC(=O)Nc2ccc3[nH]c(=O)[nH]c3c2)cc1 | – | inconclusive: 11.4% |
| COc1ccc(CCNC(=O)CCCCn2c(=O)[nH]c3ccccc3c2=O)cc1OC | – | inconclusive: -44.1% |
| CCC(C)NC(=O)c1ccc(CSc2nc3ccncc3n2Cc2ccc(F)cc2)cc1 (configuration not stated) | – | inconclusive: 6.33% |
| COc1ccccc1NC(=O)c1cc(=O)[nH]c2ccccc12 | inconclusive: 10.3 µM [activator, partial curve] | – |
| COc1cc2c(cc1OC)C(SC)=NC1(CCCC1)C2 | – | inconclusive: -39.4% |
| O=C(c1ccccc1)N1CCCCC(S(=O)(=O)c2ccc3ccccc3c2)C1=O (configuration not stated) | – | inconclusive: -5.95% |
| Cc1cc(SCC(=O)OCC(=O)c2c(N)n(C)c(=O)n(C)c2=O)c(C)cc1Br | – | inconclusive: -11.8% |
| Fc1ccc(-c2nc3n(n2)Cc2ccccc2-3)cc1 | inconclusive: 0.731 µM [activator, single point] | – |
| S=C(NCCCc1ccccc1)Nc1ccc(Cl)cc1 | inconclusive: 16.4 µM [cytotoxic, single point] | – |
| O=C(NCCN1CCN(C(=O)NC2CCCCC2)CC1)NC1CCCCC1 | – | inconclusive: 7.16% |
| CC1(NC(=O)c2cc(-c3cccs3)nn2-c2ccccc2)CCS(=O)(=O)C1 (configuration not stated) | – | inconclusive |
| CSc1nnc(-c2ccccc2Cl)n1N | inconclusive: 29.1 µM [falling, single point] | – |
| CCc1nnc(NC(=O)CSc2nnc(-c3ccncc3)n2Cc2ccccc2)s1 | – | inconclusive: 1.19% |
| Cc1cc(NC(=O)CCN2CCC(C)CC2)ccc1Br | inconclusive: 0.58 µM [activator, single point] | – |
| Cc1nc2ccccc2n1CC(=O)N/N=C/c1cccs1 | – | inconclusive: 6.44% |
| CC1CCC2(CC1)NC(=O)N(CC(=O)Nc1cccnc1Cl)C2=O (configuration not stated) | – | inconclusive: 7.94% |
| CCCCn1c(N)c(N(CC(C)C)C(=O)c2cccc(S(=O)(=O)N(C)c3ccc(C)cc3)c2)c(=O)[nH]c1=O | – | inconclusive: 5.92% |
| Cc1ccnc(NS(=O)(=O)c2ccc(N3C(=O)Nc4ccccc4N3O)cc2)c1 | – | inconclusive: 100% |
| C#CCNC(=O)c1ccc(OCc2ccccc2)cc1Cl | – | inconclusive: 22.5% |
| CCn1c(CCNC(=O)c2cccs2)nnc1SCC(=O)NC1CCCCC1 | – | inconclusive: -17.6% |
| CCOc1ccc(N2C(=O)CC(N(Cc3ccco3)C(=O)CCC(=O)O)C2=O)cc1 (configuration not stated) | – | inconclusive: -8.57% |
| Cc1nn(C(C)C(=O)NC2C(=O)N3C(C(=O)O)=C(CSc4nnnn4C)CSC23)cc1Cl (configuration not stated) | – | inactive |
| CC(NC(=O)c1ccc(-c2cc(C(F)(F)F)ccc2Cl)o1)c1ccccc1 (configuration not stated) | – | inconclusive: 131% |
| O=C(Nc1ccc(S(=O)(=O)N2CCCCC2)cc1)C1CC(=O)N(c2ccc(Cl)cc2)C1 (configuration not stated) | inconclusive: 20.6 µM [falling, single point] | – |

| Compound | Potency | lipid storage change, negative = inhibition |
| --- | --- | --- |
| COc1ccccc1NC(=O)CN1C(=O)NC(C)(C)C1=O | inconclusive: 0.116 µM [falling, full curve] | – |
| COc1ccc(NC(=O)C2CCCN2C(=O)Nc2ccc(OC)cc2)cc1 (configuration not stated) | inconclusive: 29.1 µM [activator, single point] | – |
| COc1ccccc1OCC(=O)Nc1cc(S(=O)(=O)N2CCCCC2)ccc1N1CCCCC1 | – | inconclusive: -10.6% |
| CC(=O)Oc1ccc2c(=O)c(-c3nc4ccccc4s3)coc2c1 | – | inconclusive: 17.8% |
| O=[n+]1c2c(n([O-])c3c1CCCC3)CCCCC2 | inconclusive: 32.6 µM [falling, single point] | – |
| O=C(CSc1nc2ccccc2c(=O)n1-c1ccc(OC(F)F)cc1)NCc1cccs1 | – | inconclusive: -6.99% |
| Cc1cccc(N2CCN(Cc3nc(-c4cccc(Oc5ccccc5)c4)oc3C)CC2)n1 | inconclusive: 0.58 µM [falling, full curve, poor fit] | – |
| CNC(=S)N/N=C/c1c(C)nn(-c2cccc(Cl)c2)c1Cl | – | inconclusive: -4.64% |
| CCC(C)(C)NC(=O)C(c1ccc(OC)cc1)N(C(=O)CCC(=O)Nc1cc(C)on1)C(C)(C)C (configuration not stated) | inconclusive: 6.51 µM [activator, single point] | – |
| Cc1nn(Cc2ccccc2Cl)c(C)c1NC(=O)c1ccn(C)n1 | inconclusive: 14.6 µM [activator, partial curve, poor fit] | – |
| CCc1ccc(NC(=O)Cn2cnc([N+](=O)[O-])c2)cc1 | – | inconclusive: 62.3% |
| COc1ccc(Cn2nnc3c(=O)[nH]c(C4CCN(S(=O)(=O)c5ccc(C)cc5)CC4)nc32)cc1 | active: 13 µM | – |
| Cc1cc(C)n2nc(SCc3cccc(S(=O)(=O)N(C)C)c3)nc2n1 | – | inconclusive: -13% |
| COc1ccc(CCOC(=O)c2ccc(N)c([N+](=O)[O-])c2)cc1 | – | inconclusive: -75% |
| CC1=CC(c2ccccc2)n2nnnc2N1 (configuration not stated) | – | inconclusive: 15.7% |
| NC(=O)CC(NC(=O)c1ccccc1)c1ccc(NC2CCCCC2)c([N+](=O)[O-])c1 (configuration not stated) | – | inconclusive: -30.3% |
| CC(=O)c1ccc(OCCCC(=O)Nc2cc(S(=O)(=O)N(C)C)ccc2C)cc1 | – | inconclusive: -27.8% |
| CC(Oc1ccccc1)C(=O)Nc1ccc(S(=O)(=O)Nc2nccs2)cc1 (configuration not stated) | – | inconclusive: 191% |
| O=C(NCc1cn(-c2ccccc2)nc1-c1ccc(F)cc1)c1cccc([N+](=O)[O-])c1 | – | inconclusive: -26.9% |
| S=C(Nc1ccc(Br)cc1Cl)Nn1cnnc1 | – | inconclusive: -17.4% |
| O=S1(=O)[C@H]2C[C@@H]3C=C[C@@]2(CN1Cc1ccccc1F)O3 | inconclusive: 10.3 µM [activator, partial curve] | – |
| Oc1[nH]c2ccccc2c1N=Nc1ccccc1F | – | inconclusive: -76.4% |
| CCOC(=O)c1ccc(N2CCN(c3ccccc3F)CC2)c(NC(=O)Nc2cccc(OC)c2)c1 | inconclusive: 5.8 µM [activator, full curve, poor fit] | – |
| CCOC(=O)c1sc(NC(=O)c2cc(S(=O)(=O)N3CCOCC3)ccc2C)nc1C | inconclusive: 25.9 µM [activator, single point] | – |
| O=[N+]([O-])c1ccc(NC2CCN(Cc3ccccc3)CC2)c([N+](=O)[O-])c1 | inconclusive: 29.1 µM [falling, single point] | – |
| CCOC(=O)c1c(-c2ccccc2)csc1NC(=O)CSc1nc(N)cc(N)n1 | – | inactive |

One compound at a time (already shown):
`O=[n+]1c2c(n([O-])c3c1CCCC3)CCCCC2` reads Potency: inconclusive: 32.6 µM [falling, single point]
`COc1cc2c(cc1OC)C(SC)=NC1(CCCC1)C2` reads lipid storage change, negative = inhibition: inconclusive: -39.4%

(more compounds)

| Compound | Potency | lipid storage change, negative = inhibition |
| --- | --- | --- |
| Cc1ccc(-c2csc3ncnc(Sc4nnc(CN5CCCCCC5=O)o4)c23)cc1 | – | inconclusive: -13.9% |
| C=CCC(NCc1ccco1)c1ccc(OC)cc1 (configuration not stated) | – | inactive |
| OCCN1CCN(c2ncnc3scc(-c4ccc(F)cc4)c23)CC1 | – | inconclusive: 45.3% |
| COc1cc(OC)cc(-c2nc(-c3cc4cc(C)ccc4nc3OC)no2)c1 | – | inconclusive: 78.5% |
| Cc1ccc(C2C(C(=O)O)c3ccccc3C(=O)N2C)o1 (configuration not stated) | inconclusive: 29.1 µM [falling, single point] | – |
| COc1ccc(NC2=NCCCCC2)cc1 | inconclusive: 6.51 µM [activator, partial curve, poor fit] | – |
| Cc1cc(NC(=O)CCC(=O)N(Cc2ccccc2)C(C(=O)NC2CCCC2)c2ccco2)no1 (configuration not stated) | – | inconclusive: -3.05% |
| Cc1ccc(NC(=O)COC(=O)C(NS(=O)(=O)c2ccc(Cl)cc2)C(C)O)cc1 (configuration not stated) | – | inconclusive: 226% |
| C/C(=N\NC(=O)CN(c1ccc(C)cc1)S(C)(=O)=O)c1cccs1 | – | inconclusive: 21.6% |
| COc1cccc(/C(O)=C2/C(=O)C(=O)N(CCCN(C)C)C2c2cccc(Cl)c2)c1 (configuration not stated) | – | inconclusive: 45.3% |
| NS(=O)(=O)c1ccc(CCNC(=O)c2cc(-c3ccccn3)nc3ccc(Br)cc23)cc1 | – | inconclusive: -1.95% |
| O=c1cc(CO)oc(CN2CCC(Cc3ccccc3)CC2)c1O | – | inconclusive: 7.1% |
| CCc1nnc(NC(=O)c2ccc(OC)c(S(=O)(=O)N3CCCC3)c2)s1 | – | inconclusive: -41.1% |
| O=C(O)c1cnc(-c2ccccc2)nc1Sc1cccc(Cl)c1 | – | inconclusive: 22.2% |
| O=C(NC(=S)Nc1ccc(S(=O)(=O)Nc2nccs2)cc1)c1ccc(F)cc1 | – | inconclusive: 33.9% |
| COC(=O)c1ccccc1NC(=O)c1cccnc1 | – | inactive |
| C/C(CC(=O)NC12CC3CC(CC(C3)C1)C2)=N\NC(=O)c1cnccn1 | – | inactive |
| CCn1c(=NC(=O)c2ccc(S(=O)(=O)N(C)C)cc2)sc2cccc(OC)c21 | – | inconclusive: -4.22% |
| CC(=O)c1ccccc1NC(=O)C1CCCN(C(=O)c2ccc(Cl)cc2)C1 (configuration not stated) | inconclusive: 6.51 µM [activator, single point] | – |
| CCN(CC)S(=O)(=O)c1cc(NS(=O)(=O)c2ccccc2)ccc1C | – | inconclusive: 21.1% |
| Cc1ccc(OCCC(=O)OCC(=O)NCCc2ccccc2)cc1 | – | inconclusive: 22.8% |
| Cc1sc(NC(=O)CSc2nnnn2C)c(C#N)c1C | – | inconclusive: -3.14% |
| CCOC(=O)N1CCC(NC(=O)c2cc3c(-c4ccccc4F)nn(C)c3s2)CC1 | – | inconclusive: -18.1% |
| Cc1cc2[nH]c(=O)cc(-c3ccccc3)n2n1 | – | inconclusive: -59.3% |
| Nc1ccc2nc3c(=O)n(C4CCCCC4)c(=O)[nH]c3nc2c1 | inconclusive: 20.6 µM [cytotoxic, partial curve, poor fit] | – |

No new results follow: entries from further up.

| Compound | Potency | lipid storage change, negative = inhibition |
| --- | --- | --- |
| O=c1cc(CO)oc(CN2CCC(Cc3ccccc3)CC2)c1O | – | inconclusive: 7.1% |
| CCc1nnc(NC(=O)c2ccc(OC)c(S(=O)(=O)N3CCCC3)c2)s1 | – | inconclusive: -41.1% |
| O=C(O)c1cnc(-c2ccccc2)nc1Sc1cccc(Cl)c1 | – | inconclusive: 22.2% |
| O=C(NC(=S)Nc1ccc(S(=O)(=O)Nc2nccs2)cc1)c1ccc(F)cc1 | – | inconclusive: 33.9% |
| COC(=O)c1ccccc1NC(=O)c1cccnc1 | – | inactive |
